Reference: the supplement of paper PMC7877785
± gives the uncertainty stated by the source. The uncertainty is large for many entries.

Test: self-splicing fitness, log relative to wild type (ln ratio); higher = more splicing; Tetrahymena group I intron in knt gene, E. coli kanamycin selection, DiMSum; sequences stand for … in CUCUCU…GGAGGGAAAAGUUAUCAGGCAUGCACCUGGUAGCUAGUCUUUAAACCAAUAGAUUGCAUCGGUUUAAAAGGCAAGACCGUCAAAUUGCGGGAAAGGGGUCAACAGCCGUUCAGUACCAAGUCUCAGGGGAAACUUUGAGAUGGCCUUGCAAAGGGUAUGGUAAUAAGCUGACGGACAUGGUCCUAACCACGCAGCCAAGUCCUAAGUCAACAGAUCUUCUGUUGAUAUGGAUGCAGUUCACAGACUAAAUGUCGGUCGGGGAAGAUGUAUUCUUCUCAUAAGAUAUAGUCGGACCUCUCCUUAAUGGGAGCUAGCGGAUGAAGUGAUGCAACACUGGAGCCGCUGGGAACUAAUUUGUAUGCGAAAGUAUAUUGAUUAGUUUUGGAGUACUCGUGGUCG
How it was run: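 Six replicate transformations of E. coli BL21(DE3) with a pET-22b(+) library were grown overnight at 37°C or 30°C. The library randomised all eight P1ex-region intron nucleotides, the intron lying in the knt kanamycin-resistance gene, and plates were LB agar with or without 25 μg/mL kanamycin plus 100 μg/mL carbenicillin, 50 μM IPTG and 0.2% rhamnose. Pooled colonies were amplicon-sequenced on an Illumina HiSeq 2500, and fitness is the DiMSum error-weighted combination of wild-type-normalised replicate fold changes, kanamycin versus none.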

Sequence | self-splicing fitness (ln) (30 °C) | self-splicing fitness (ln) (37 °C)
CAAGAGCAAUAUUACGCGGA | -2.87 ± 0.5 | -2.5 ± 0.54
GUUCAGCAAUAUUACGAACC | – | -2.14 ± 0.77
UCUUAGCAAUAUUACGCAGC | -3.01 ± 0.64 | -2.48 ± 1.1
GGAUAGCAAUAUUACGGAUA | -2.62 ± 0.56 | –
AUGGAGCAAUAUUACGAUUA | – | -3.21 ± 0.75
CAGUAGCAAUAUUACGUUGC | – | -3.97 ± 1
CCGGAGCAAUAUUACGCUAU | -4.42 ± 0.59 | –
GCACAGCAAUAUUACGCCAC | -4.26 ± 1 | –
UGGGAGCAAUAUUACGAGCC | – | -1.98 ± 1.1
AGGGAGCAAUAUUACGAAAA | -4.19 ± 1 | -1.97 ± 0.66
AUGGAGCAAUAUUACGAACC | – | -1.88 ± 1.2
AAAGAGCAAUAUUACGACUG | – | -1.93 ± 0.51
GUAUAGCAAUAUUACGGUAC | -3.19 ± 0.53 | –
UAGUAGCAAUAUUACGCCAC | – | -1.56 ± 0.4
GCGUAGCAAUAUUACGCCGA | -3.83 ± 1 | –
GGAAAGCAAUAUUACGUAGU | -2.97 ± 0.11 | -1.23 ± 0.088
GGUCAGCAAUAUUACGAGGA | -3.47 ± 0.54 | –
UCUUAGCAAUAUUACGGCCU | – | -2.15 ± 0.55
GCAUAGCAAUAUUACGUUAU | -2.61 ± 0.16 | -3.08 ± 0.27
CGUGAGCAAUAUUACGCAAU | -2.52 ± 0.14 | -2.75 ± 0.25
GAUCAGCAAUAUUACGCCAC | -2.09 ± 1.4 | –
CAAGAGCAAUAUUACGACCA | -3.9 ± 0.61 | -1.99 ± 0.66
CGUGAGCAAUAUUACGGGAC | -3.1 ± 0.54 | –

Sequence | self-splicing fitness (ln) (30 °C) | self-splicing fitness (ln) (37 °C)
GAUGAGCAAUAUUACGUAUA | -1.84 ± 0.58 | –
AGCUAGCAAUAUUACGCUCC | -2.79 ± 1.2 | -1.49 ± 0.59
AGUCAGCAAUAUUACGCCGC | -2.6 ± 0.64 | -1.47 ± 0.87
AUGGAGCAAUAUUACGAGCA | -2.33 ± 0.46 | -1.17 ± 0.49
GCAGAGCAAUAUUACGCACA | – | -1.66 ± 0.52
CCGGAGCAAUAUUACGCACA | – | -2.66 ± 0.76
GGAGAGCAAUAUUACGCAUG | -3.02 ± 0.62 | –
AGGGAGCAAUAUUACGCCGG | -3.1 ± 0.63 | -1.98 ± 1.1
AACGAGCAAUAUUACGUGUU | -4.56 ± 0.51 | –
GUAGAGCAAUAUUACGCGUC | -0.836 ± 0.18 | -0.0736 ± 0.22
UUUUAGCAAUAUUACGUAGC | -3.52 ± 0.62 | -1.5 ± 0.51
CGACAGCAAUAUUACGGCAC | -2.39 ± 0.55 | -2.87 ± 0.53
AGCUAGCAAUAUUACGGCUC | -3.32 ± 0.37 | -3.06 ± 0.43
AGUGAGCAAUAUUACGAGGU | – | -2.84 ± 0.53
CAGAAGCAAUAUUACGGAAC | -3.6 ± 1 | -1.55 ± 0.68
CUUUAGCAAUAUUACGCGUU | -3.9 ± 0.51 | -3.44 ± 0.6
CGUAAGCAAUAUUACGGGAC | -2.9 ± 0.29 | -2.47 ± 0.41
ACAUAGCAAUAUUACGCGUU | -3.55 ± 0.24 | -2.39 ± 0.15
UUCAAGCAAUAUUACGUAGG | -1.53 ± 0.08 | -0.995 ± 0.13
UGAGAGCAAUAUUACGGCAC | -2.21 ± 1.1 | -2.59 ± 0.54
UUCUAGCAAUAUUACGAGCU | -3.18 ± 0.62 | -4.11 ± 0.72
UCUGAGCAAUAUUACGAACU | -3.23 ± 1 | -0.693 ± 0.71

An excerpt of these results, as tab-separated lines:
Sequence	self-splicing fitness (ln) (30 °C)	self-splicing fitness (ln) (37 °C)
GAUGAGCAAUAUUACGUAUA	-1.84 ± 0.58	–
AGCUAGCAAUAUUACGCUCC	-2.79 ± 1.2	-1.49 ± 0.59
AGUCAGCAAUAUUACGCCGC	-2.6 ± 0.64	-1.47 ± 0.87
AUGGAGCAAUAUUACGAGCA	-2.33 ± 0.46	-1.17 ± 0.49
GCAGAGCAAUAUUACGCACA	–	-1.66 ± 0.52
CCGGAGCAAUAUUACGCACA	–	-2.66 ± 0.76
GGAGAGCAAUAUUACGCAUG	-3.02 ± 0.62	–
AGGGAGCAAUAUUACGCCGG	-3.1 ± 0.63	-1.98 ± 1.1
AACGAGCAAUAUUACGUGUU	-4.56 ± 0.51	–
GUAGAGCAAUAUUACGCGUC	-0.836 ± 0.18	-0.0736 ± 0.22
UUUUAGCAAUAUUACGUAGC	-3.52 ± 0.62	-1.5 ± 0.51
CGACAGCAAUAUUACGGCAC	-2.39 ± 0.55	-2.87 ± 0.53
